T1: hGIPR-Fc protein (human) (UniProt P48546)
T1 sequence (looked up): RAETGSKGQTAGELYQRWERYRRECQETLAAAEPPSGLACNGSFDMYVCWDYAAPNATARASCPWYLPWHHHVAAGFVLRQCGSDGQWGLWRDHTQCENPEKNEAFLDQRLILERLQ

B1: CE560 (antibody, human IgG1, kappa, L234A L235A, V domains shown)
VH: EVQLVQSGAEVKKPGSSVKVSCKASGGTFNNYAISWVRQAPGQGLEWMGRIIPFLDIASYAQKFQGKVTITADKSTSTAYMELSSLRSEDTAVYYCAREVDWGWFDSWGQGTLVTVSS
VL: IQMTQSPSSLSASVGDRVTITCRASQGISSYLAWYQQKPGKAPKLLIYAASTLQSGVPSRFSGSGSGTDFTLTISSLQPEDFATYYCQQLNSYPLTFGGGTKVEIKR
B2: BA191 (antibody, human IgG1, kappa, L234A L235A, V domains shown)
VH: EVQLVQSGAEVKKPGSSVKVSCKASGGTFSTFSSYAISWVRQAPGQGLEWMGRIIPILGIGNNAQKFQGRVTITADKSTSTAYMELSSLRSEDTAVYYCAREKDWGHFDYWGQGTLVTVSS
VL: DIQMTQSPSSLSASVGDRVTITCRASQGISNYLAWFQQKPGKAPKSLIYAASSLQSGVPSKFSGSGSGTDFTLTISSLQPEDFATYYCQQYNSYPITFGQGTRLEIKR
B3: CE947 (antibody, human IgG1, kappa, L234A L235A, V domains shown)
VH: B1 VH with Y60N
VL: B2 VL with K61R, S77N, Q89L, N92Y, S93D, I96L, Q100G, R103K

Residue numbers refer to the chain shown, from its start. Results are given in words; binding and its absence hold for the method and conditions named. Some binding calls cover weakened binding; strength is not graded here. Tags and fused reporters may be left off the sequences shown.

The target in this assay is T1, hGIPR-Fc protein (human). The assay can be described thus: ELISA, hGIPR-Fc coated. For orientation: An ELISA detects its analyte on a solid surface through an enzyme-linked reagent.
Take B1: the binding entry is “binds”. With B2, the binding result is reported as “binds”. In the case of B3, the binding result is recorded as “binds”.

Source of the values: patent publication EP4803098A1, “GIPR BLOCKING TYPE ANTIBODY AND ANTIBODY CONJUGATE THEREOF” (Shandong Boan Biotechnology Co., Ltd., priority 2023, dated 2025).
